Values of other authors, collected in patent US9782516B2, “Tissue adhesive coatings for drug coated balloon” (ABBOTT CARDIOVASCULAR SYSTEMS INC., priority 2013, dated 2017).
At least one compound was matched to its structure with a doubt left.

System: platelets
Conditions: due to mTOR inhibition; cited from earlier work

Compound: CO[C@H]1C[C@@H]2CC[C@@H](C)[C@@](O)(O2)C(=O)C(=O)N2CCCC[C@H]2C(=O)O[C@H]([C@H](C)C[C@@H]2CC[C@@H](O)[C@H](OC)C2)CC(=O)[C@H](C)/C=C(\C)[C@@H](O)[C@@H](OC)C(=O)[C@H](C)C[C@H](C)/C=C/C=C/C=C/1C [Sirolimus]
- retraction of fibrin via platelets: inhibit the retraction of fibrin via platelets
